# From PubChem BioAssay AID1347076 (National Center for Advancing Translational Sciences (NCATS), 2019)
# The campaign covered roughly 400,000 compounds. About 13,000 (3.2%) were called active. The inconclusive results got no clear call from the source; some entries with a clear call stand among them for comparison. Calls follow the shape of the dose curve; as a rule, active = well fitted cell-killing curve with a large enough effect; inconclusive = small, poorly fitted or top-dose-only effect, or effect the other way; inactive = flat fitted curve, though single readings scatter. A potency beside an inconclusive call is a rough fit, not a confirmed value.
# Assay: qHTS assay for MDR1-selective chemotherapeutics: Primary screen using the drug-selected MDR subline cells KB-V1; also: nearly all actives have a fitted effect of over 60% in size
# Conditions: KB-V1 MDR cells viability, CellTiter-Glo, 72 h; activity change, negative = cytotoxicity: at 46.1 µM (top of the series)
# Method in brief: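 Compound-treated KB-V1 multidrug-resistant cells, 72 h, 37 degrees C; viability by CellTiter-Glo. Fitted qHTS curves give the values.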
# % is scaled to controls: 0 for no effect and ±100 for the full control effect; potency is read from the fitted curve at half-maximal effect.
Compound,Potency,"activity change, negative = cytotoxicity"
COc1ccc(CCN2C(=O)CC(Cc3ccc(C)cc3)C2=O)cc1OC (stereo not given),"inconclusive: 13 µM [cytotoxic, partial curve, poor fit]",–
Cc1c2c(n3c(nc4ccccc43)c1C#N)N(CCN1CCOCC1)CC2,"inconclusive: 6.51 µM [cytotoxic, partial curve]",–
CCOC(=O)[C@]12CCC=C1N(Cc1cccc3ccccc13)C(=O)[C@H](CC(=O)N1CCCC1)C2,"inconclusive: 3.26 µM [cytotoxic, partial curve]",–
O=C(CN1CCOCC1)Nc1ccc(OCc2ccccc2)cc1,–,inactive: 7.61%
Cc1ccccc1NC(=O)COC(=O)[C@@H]1CCCN1C(=O)c1cccs1,–,inactive: 14.3%
CSc1nc2cc(S(=O)(=O)N3CCCCC3)ccc2s1,active: 14.6 µM,–
Cc1cccc(CNC(=O)c2ccc3oc(=O)n(Cc4ccccc4)c3c2)c1,"inconclusive: 32.6 µM [cytotoxic, single point]",–
CCOc1ccc(NC(=O)CN(C)C(=O)CCCOc2ccc(Cl)c(C)c2)cc1OCC,"inconclusive: 5.17 µM [cytotoxic, partial curve]",–
O=C1C(Cl)=C(NCCN2CCOCC2)C(=O)c2ccccc21,"inconclusive: 29.1 µM [cytotoxic, single point]",–
CCN(CC)c1ccc(C(=O)NNC(=O)CNC(=O)c2cccs2)cc1,"inconclusive: 3.66 µM [cytotoxic, full curve, poor fit]",–
Cc1cccc(CN2C(=O)[C@H]3Cc4c([nH]c5ccccc45)C(C)(C)N3C2=O)c1,"inconclusive: 18.4 µM [cytotoxic, single point]",–
CC1(C(=O)Nc2cccc(Oc3ccccc3)c2)Cc2c(-c3ccc4c(c3)OCO4)ccnc2O1 (stereo not given),active: 5.8 µM,–
CCCC(NC(=O)c1ccco1)c1nc2ccccc2[nH]1 (stereo not given),"inconclusive: 18.4 µM [cytotoxic, single point]",–
O=C(O)[C@@H]1CCCN(S(=O)(=O)c2cccc3cccnc23)C1,–,inactive: 4.69%
Cc1cc(C)cc(NC(=O)CSc2oc(-c3ccco3)nc2S(=O)(=O)c2ccc(Cl)cc2)c1,"inconclusive: 29.1 µM [cytotoxic, single point]",–
O=C(c1ccc(Cl)c(Cl)c1)N1CCN(c2ccccn2)CC1,–,inactive: -20.9%
CCOC(=O)N1CCN(c2cc(=O)n(-c3cccc(C)c3)c(=O)[nH]2)CC1,–,inactive: -14.4%
COc1ccc(CS(=O)(=O)/C(Cl)=C(/Cl)C(=O)Nc2ccc(OC)nc2)cc1,active: 3.66 µM,–
COCCCNC(=O)CC1C[C@H](C(=O)N(C(C)C)C(C)C)[C@@]2(C)c3[nH]c4ccccc4c3CCN2C1=O (stereo not given in full),–,inactive: 9.28%
CSc1ccc(CNC(=O)C2CCN(c3nc4ccccc4nc3C(F)(F)F)CC2)cc1,–,inactive: 1.39%
Cn1nc(C(=O)NCc2ccccc2Cl)c2c1-c1ccccc1S(=O)(=O)C2,inactive,–
CC(O)(c1ccc(Cl)cc1)C(c1ccccc1)c1ccccn1 (stereo not given),"inconclusive: 13 µM [cytotoxic, partial curve]",–

Compound,Potency,"activity change, negative = cytotoxicity"
O=C(CSc1nc2ccccc2c(=O)n1-c1ccccc1)NCc1ccco1,active: 13 µM,–
O=C(NCc1ccco1)c1ccc2c(c1)N(Cc1c(F)cccc1Cl)C(=O)c1ccccc1S2,–,inactive: 1.62%
OC(c1cc(F)cc(Cl)c1)c1ncc(-c2cccc(C(F)(F)F)c2)[nH]1 (stereo not given),"inconclusive: 23.1 µM [cytotoxic, single point]",–
Cc1cc(C)cc(NC(=O)Cc2c(C(=O)O)c(C)cn2C)c1,–,inactive: -6.88%
COc1ccc(N(CC(=O)Nc2cc(C)ccc2C)S(=O)(=O)c2c(C)noc2C)cc1,"inconclusive: 16.4 µM [cytotoxic, single point]",–
CC(C)c1ccc(NC(=O)CN2C(=O)NC3(CCCC3)C2=O)cc1,"inconclusive: 6.51 µM [rising, full curve, poor fit]",–
COc1cc2c(cc1OC)C(C)N(C(=O)c1cc3c(C)cc(C)cc3[nH]1)CC2 (stereo not given),"inconclusive: 18.4 µM [cytotoxic, single point]",–
CC(C)(C)n1ncc2c(=O)n(Cc3ccccc3Br)cnc21,–,inconclusive: 0%
CC(C)Oc1ccc(CNC(=O)c2cc(S(=O)(=O)N3CCOCC3)cn2C)cc1,–,inactive: 2.78%
COc1c(OC)c(O)c2c(=O)cc(-c3c(O)cccc3O)oc2c1OC,"inconclusive: 11.6 µM [cytotoxic, partial curve, poor fit]",–
CCCCOC(=O)c1ccc(-c2ccc(/C=N/NC(=S)NCC)o2)cc1,–,inactive: 1.88%
O=C(c1ccco1)N1CCN(Cc2nc3ccccc3c(=O)n2-c2ccc(F)cc2)CC1,"inconclusive: 0.517 µM [cytotoxic, partial curve, poor fit]",–
COCCN(C(=O)COC(=O)C1=COCCO1)c1c(N)n(Cc2ccccc2)c(=O)[nH]c1=O,"inconclusive: 1.46 µM [rising, full curve]",–
COc1ccccc1CCC(=O)NCCCn1ccc2ccccc21,"inconclusive: 18.4 µM [cytotoxic, single point]",–
Cc1cccc(-n2c(=O)c3ccccc3n(Cc3ccccc3)c2=O)c1,–,inactive: 8.26%
CC1CCC(C(C)C)C(OCC(O)CN2CCCC(C)C2)C1 (stereo not given),"inconclusive: 8.2 µM [cytotoxic, partial curve, poor fit]",–
CC(C)C(=O)NCCc1nc(-c2ccccc2)no1,"inconclusive: 20.6 µM [rising, partial curve, poor fit]",–
CCOC(=O)C1CCN(Cc2ccc(OC)c(C)c2OC)CC1,"inconclusive: 11.6 µM [cytotoxic, partial curve]",–
CC(C)CCNC(=O)C(c1ccco1)N(Cc1ccccc1)C(=O)c1snc(C(N)=O)c1N (stereo not given),"inconclusive: 29.1 µM [cytotoxic, single point]",–
CCOc1ccc(-n2c(=O)c3c4c(sc3n(CC(=O)NC(C)CC)c2=O)CCCC4)cc1 (stereo not given),"inconclusive: 10.3 µM [rising, partial curve]",–
Cc1ccc(NC(=O)CN(C)CC(=O)Nc2cccc(F)c2)cc1[N+](=O)[O-],"inconclusive: 1.64 µM [cytotoxic, full curve]",–
CC(=O)c1cccc(NC(=O)C2CCN(S(=O)(=O)c3ccc4[nH]c(=O)ccc4c3)CC2)c1,"inconclusive: 29.1 µM [rising, single point]",–

Compound,Potency,"activity change, negative = cytotoxicity"
O=C(CSc1nc2c([nH]c3ccccc32)c(=O)n1-c1cccc(C(F)(F)F)c1)N1CCc2ccccc21,"inconclusive: 29.1 µM [rising, partial curve, poor fit]",–
COc1ccc([N+](=O)[O-])cc1NC(=O)Cn1ccc(C(F)(F)F)n1,"inconclusive: 13 µM [cytotoxic, partial curve]",–
COC(CNS(=O)(=O)c1ccc(Cl)cc1)c1ccccc1 (stereo not given),"inconclusive: 29.1 µM [cytotoxic, single point]",–
CC1(C)CC(c2nc(-c3ccc(Cl)cc3)cs2)CCS1 (stereo not given),"inconclusive: 16.4 µM [cytotoxic, single point]",–
O=C(CSc1ccc(-c2cccc([N+](=O)[O-])c2)nn1)N1CCCC1,"inconclusive: 25.9 µM [cytotoxic, single point]",–
COc1cccc(N2CCN(C(=O)CCCCCn3c(=O)[nH]c4ccccc4c3=O)CC2)c1,–,inactive: 1.41%
COc1ccc(NC(=O)c2nc3nccc(C)n3n2)cn1,"inconclusive: 18.4 µM [rising, partial curve, poor fit]",–
COCCn1c(=NC(=O)CCS(=O)(=O)c2ccccc2)sc2cc(C)ccc21,"inconclusive: 2.31 µM [cytotoxic, partial curve]",–
CCOP(=O)(c1c(F)c(F)c(F)c(F)c1F)C1(O)CCCCC1 (stereo not given),"inconclusive: 16.4 µM [rising, partial curve]",–
O=C(O/N=C\c1ccc(N2CCCCC2)c([N+](=O)[O-])c1)c1ccc(Cl)cc1Cl,"inconclusive: 14.6 µM [cytotoxic, partial curve]",–
O=C(CSc1nc(N2CCCCC2)nc(N2CCCCC2)n1)c1ccccc1,"inconclusive: 29.1 µM [cytotoxic, partial curve, poor fit]",–
O=C(N/N=C/c1c[nH]c2ccccc12)C1CC1(c1ccccc1)c1ccccc1 (stereo not given),"inconclusive: 16.4 µM [cytotoxic, single point]",–
NC(Cc1ccc(Cl)cc1)c1csc(Nc2nccc(C(F)(F)F)n2)n1 (stereo not given),"inconclusive: 20.6 µM [cytotoxic, single point]",–
COC(=O)c1cc2oc(C)cc2n1CC(=O)Nc1ccc(C)c(C)c1,"inconclusive: 29.1 µM [cytotoxic, single point]",–
CC(CCc1ccccc1)NC(=O)C1CCN(S(=O)(=O)N2CCCCC2)CC1 (stereo not given),"inconclusive: 18.4 µM [cytotoxic, single point]",–
COC(=O)C1=C(C(=O)OC)[C@@H]2N(C)c3ccc(OC)cc3[C@@]23C[C@@H](C(=O)OC)N(C(=O)c2ccc(Br)cc2)C3=N1,"inconclusive: 32.6 µM [cytotoxic, single point]",–
Cc1ccc(S(=O)(=O)N(C)Cc2nc(-c3ccccc3)oc2C)cc1,–,inactive: -5.41%
O=C(CSc1nnc(COc2ccc(Cl)cc2)o1)N(c1ccccc1)C1CCS(=O)(=O)C1 (stereo not given),"inconclusive: 29.1 µM [cytotoxic, single point]",–
O=C(N/N=C/c1cc2ccccc2nc1Cl)[C@H]1C[C@@H]1c1ccccc1,"inconclusive: 20.6 µM [cytotoxic, partial curve]",–
CSc1nnc(-c2cccs2)n1C,"inconclusive: 9.2 µM [rising, partial curve, poor fit]",–
CCC1(c2ccccc2)NC(=O)N(CC(=O)Nc2cc(Cl)ccc2N2CCOCC2)C1=O (stereo not given),"inconclusive: 8.2 µM [cytotoxic, partial curve, poor fit]",–

# Taken from the results shown, 2 compounds:
Compound,Potency,"activity change, negative = cytotoxicity"
COc1ccc([N+](=O)[O-])cc1NC(=O)Cn1ccc(C(F)(F)F)n1,"inconclusive: 13 µM [cytotoxic, partial curve]",–
COC(CNS(=O)(=O)c1ccc(Cl)cc1)c1ccccc1 (stereo not given),"inconclusive: 29.1 µM [cytotoxic, single point]",–
